Assay results taken from EP4635954A1, “INDUCER FOR INDUCING MESENCHYMAL-EPITHELIAL TRANSITION AND REPROGRAMMING” (Iregene Therapeutics Co., Ltd, priority 2022, dated 2024).

Test system: miR-145
Test: Isothermal titration calorimetry (ITC), Nano-ITC
Format: binding
Details: Multiple Sites model
Description: Isothermal titration calorimetry (ITC) operates based on the principle of power compensation and allows accurate determination of the enthalpy change associated with molecular interactions across a broad concentration range using a single titration experiment. It measures the heat change upon binding and provides a complete thermodynamic profile of nucleic acid-ligand interactions. Quantitative thermodynamic characterization of the complex is essential for understanding the molecular basis of the interaction between the microRNA miR-145 and the small molecule compound. In this invention, the Nano-ITC calorimeter from Waters Corporation was used to validate in vitro the interaction between nucleic acid and small molecule compounds. The experimental procedure involved placing 300 µL of singlestranded miR-145 solution at a concentration of 50 µM into a temperature-controlled sample cell, which was thermally coupled via a thermocouple circuit to a reference cell containing an equal volume of deionized water. As an example, the small molecule A-3-6 was prepared at a concentration of 500 µM and a volume of 50 µL, and loaded into the injection syringe as the ligand. The heat change in the sample cell was measured and balanced against the reference cell, appearing as either endothermic or exothermic peaks. […]

## O=C(Cc1ccccc1)Nc1cc2cc[nH]c2cn1 [Compound A-3-6, 2-Phenyl-N-(1H-pyrrolo[2,3-c]pyridin-5-yl)acetamide]
First site (Kd 7.017×10^-8 M)
  number of binding sites (nSite): 3
Second site (Kd 7.544×10^-9 M)
  number of binding sites (nSite): 1.8
